This assay addresses PARP1-GFP (UniProt P09874). Briefly: co-IP.

By UniProt entry, the sequences of proteins in these tests, tags left out. Where a name states a change or a piece, a line headed by the entry shows the natural chain unless it says otherwise.
UniProt P09874: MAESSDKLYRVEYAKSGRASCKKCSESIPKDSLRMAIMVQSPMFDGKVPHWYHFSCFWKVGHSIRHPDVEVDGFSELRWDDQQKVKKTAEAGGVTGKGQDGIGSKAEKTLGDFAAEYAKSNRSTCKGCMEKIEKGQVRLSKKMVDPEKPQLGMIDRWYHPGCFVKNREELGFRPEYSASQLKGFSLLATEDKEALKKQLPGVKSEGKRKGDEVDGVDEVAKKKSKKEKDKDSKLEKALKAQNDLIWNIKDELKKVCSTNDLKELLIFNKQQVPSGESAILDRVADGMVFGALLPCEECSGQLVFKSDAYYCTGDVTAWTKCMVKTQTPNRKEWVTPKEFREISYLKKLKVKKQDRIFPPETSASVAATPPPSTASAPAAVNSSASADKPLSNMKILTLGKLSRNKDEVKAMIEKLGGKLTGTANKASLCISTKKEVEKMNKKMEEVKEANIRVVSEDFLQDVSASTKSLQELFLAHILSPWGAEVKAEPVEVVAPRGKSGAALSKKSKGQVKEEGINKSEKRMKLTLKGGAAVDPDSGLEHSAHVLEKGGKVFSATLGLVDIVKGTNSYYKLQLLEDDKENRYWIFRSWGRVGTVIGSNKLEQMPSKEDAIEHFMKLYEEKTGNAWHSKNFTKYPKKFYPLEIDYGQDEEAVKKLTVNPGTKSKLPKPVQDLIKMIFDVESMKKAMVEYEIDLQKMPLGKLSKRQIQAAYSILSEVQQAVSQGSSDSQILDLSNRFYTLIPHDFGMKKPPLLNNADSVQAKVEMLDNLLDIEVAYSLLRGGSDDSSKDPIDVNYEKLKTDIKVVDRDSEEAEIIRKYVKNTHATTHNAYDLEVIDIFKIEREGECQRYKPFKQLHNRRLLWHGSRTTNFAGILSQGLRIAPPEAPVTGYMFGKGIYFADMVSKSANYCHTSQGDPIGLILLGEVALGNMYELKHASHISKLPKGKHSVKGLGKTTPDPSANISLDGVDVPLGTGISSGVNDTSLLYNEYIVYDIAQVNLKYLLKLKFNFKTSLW
UniProt Q9Y6I9: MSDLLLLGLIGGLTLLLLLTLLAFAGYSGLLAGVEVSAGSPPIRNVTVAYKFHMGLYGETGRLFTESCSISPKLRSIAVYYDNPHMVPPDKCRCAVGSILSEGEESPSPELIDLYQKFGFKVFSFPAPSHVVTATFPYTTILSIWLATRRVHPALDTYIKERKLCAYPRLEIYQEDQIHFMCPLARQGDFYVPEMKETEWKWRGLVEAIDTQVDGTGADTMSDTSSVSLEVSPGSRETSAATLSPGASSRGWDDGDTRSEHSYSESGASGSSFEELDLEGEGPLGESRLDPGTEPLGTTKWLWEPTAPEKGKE

No constants are given. Whether binding was seen depends on the method and setting. Binding seen in cells or lysates may run through a third protein. Binding calls can cover weak binding; strength is not graded here.

With TEX264-Δα-Helix (from UniProt Q9Y6I9), the binding result is recorded as “binds”.

Source of the values: article doi:10.64898/2025.12.11.692727.
